Laboratory results taken from patent US9145445B2 (priority 2003, dated 2015).
At least one peptide structure holds a part that was inferred or is arguable (an end, a ring closure or a residue). Some of these results come from one statement about several compounds together. Where a SMILES comes first, the peptide text is derived from it.

Assays:
[1] = test system: purified Pertussis Toxin; test: binding of purified PT to peptides immobilized on streptavidin sepharose; parameters: species or system Bordetella pertussis; details: ~200 pmol peptide on streptavidin sepharose, 100 pmol purified PT, gel, silver staining
[2] = test system: PT; test: stability of PT/peptide complexes, BIAcore 2000; assay type: binding, Bordetella pertussis
Protocol: The stability of PT/peptide complexes were investigated using the BIAcore 2000 instrument under different pH and salt conditions that were shown before not to interfere with the PT hexamer stability. 500-1000 RU of the synthetic peptides were immobilized on BIAcore streptavidin chips. To allow binding of PT to the immobilized peptides, 20 nM purified PT in HEPES buffer was injected for 1 minute. After equilibration with HBS/EP running buffer (0.01 M HEPES pH 7.4, 0.15 M NaCl 3 mM EDTA 0.005% polysorbate 20 (v/v)) the PT/peptide complexes were washed by injection of • (a) 100 mM carbonate buffer at pH 10.5 and 9.5 • (b) 10 mM acetate buffer at pH 5.5, 5.0, 4.5, and 4.0 • (c) 10 mM glycine buffer at pH 3.0 and 2.5 • (d) 0.5, 1.0, 1.5, 2.0 M NaCl in 10 mM acetate buffer, pH 6.0, • (e) 0.5, 1.0, 1.5, 2.0 M NaCl in 50 mM Tris/HCl buffer, pH 8.5, • (f) 0.5, 1.0, 1.5, 2.0 M KCl in 10 mM acetate buffer, pH 6.0, • (g) 0.5, 1.0, 1.5, 2.0 M KCl in 50 mM Tris/HCl buffer, pH 8.5, • (h) 0.5, 1.0, 1.5, 2.0 M NaCl in 10 mM acetate buffer, pH 6.0, • (i) 0.5, 1.0, 1.5, 2.0 M NaCl in 50 mM Tris/HCl buffer, pH 8.5.
After the end of each buffer injection, the chip was equilibrated with HBS/EP running buffer. The loss of PT hexamer on the chip under the applied buffer conditions (difference of measured RU signal before and after buffer injection) reflects the PT/peptide complex stability.

[3] = test system: PT; test: reutilization of peptide sepharose for repeated PT binding and elution; parameters: species or system Bordetella pertussis; details: 4 cycles of PT binding, carbonate pH 10.5 elution, 10 mM HCl regeneration
Protocol: For binding of PT each peptide streptavidin sepharose was incubated with 400 μl sample B (adjusted to pH 7.0-7.5 by addition of HC1) for 1 hour at RT and washed 4 times with 50 mM Tris/HC1, pH 7.5 (each 200 μl). PT was eluted by 4 consecutive elutions with 100 mM Carbonate buffer at pH 10.5 (each 20 μl). Subsequently the column matrices were regenerated by three washes with 10 mM HC1 (l×20 μl, 2×100 μl) and afterwards neutralized by two washes with 200 μl 50 mM Tris/HC1, pH 7.5. This binding, elution and regeneration procedure was applied to the peptide sepharose for three additional times. […] (FIG. 25). • 5. Large-scale FPLC-Purification of PT

[4] = test system: PT immobilized on a CM5 chip; assay type: binding, Bordetella pertussis
[5] = test system: PT; assay type: binding, Bordetella pertussis

## CC[C@H](C)[C@H](NC(=O)[C@H](CO)NC(=O)[C@H](CC(C)C)NC(=O)[C@H](CCCNC(=N)N)NC(=O)[C@H](CO)NC(=O)[C@H](CCCNC(=N)N)NC(=O)[C@H](Cc1c[nH]cn1)NC(=O)[C@@H]1CCCN1C(=O)[C@H](CCCNC(=N)N)NC(=O)[C@H](CC(=O)O)NC(=O)[C@H](Cc1c[nH]c2ccccc12)NC(=O)CNC(=O)[C@@H](NC(=O)[C@H](CC(=O)O)NC(=O)[C@H](Cc1ccc(O)cc1)NC(=O)[C@H](Cc1c[nH]c2ccccc12)NC(=O)[C@@H](NC(=O)[C@H](CCC(=O)O)NC(=O)[C@H](CC(N)=O)NC(=O)[C@H](CC(C)C)NC(=O)[C@@H]1CCCN1C(=O)[C@@H](NC(=O)[C@@H](NC(=O)[C@H](CC(N)=O)NC(=O)[C@H](CO)NC(=O)[C@H](CCCNC(=N)N)NC(=O)COCCOCCNC(=O)CCCC[C@@H]1SC[C@@H]2NC(=O)N[C@@H]21)C(C)C)[C@@H](C)CC)C(C)C)[C@@H](C)O)C(=O)N[C@@H](CC(=O)O)C(=O)N[C@@H](CC(=O)O)C(=O)N[C@@H](CC(=O)O)C(=O)N[C@@H](C)C(=O)O [pp26 9n] (HELM PEPTIDE1{[O=C1N[C@H]2[C@H](CS[C@H]2CCCCC(=O)[*:2])N1].[O=C(COCCOCCN[*:1])[*:2]].R.S.N.V.I.P.L.N.E.V.W.Y.D.T.G.W.D.R.P.H.R.S.R.L.S.I.D.D.D.A}$$$$V2.0)
[1]
  binding to purified PT: clear binding
[2]; PT/peptide complex, instable at pH 2.5 or 10.5
  pH range stability of the complex (stable): 3-9 pH
[2]; pH 6
  KCl stability of the complex (stable): 2 M
  MgCl2 stability of the complex (stable): stable
  NaCl stability of the complex (stable): 2 M
[2]; pH 8.5
  KCl stability of the complex (stable): 2 M
  MgCl2 stability of the complex: Sensitive from: from 125 mM,
  MgCl2 stability of the complex: complete elution: elution ≧2M
  NaCl stability of the complex (stable): 2 M
[3]
  reusability of peptide loaded sepharose: may be re-utilized
[4]
  Association equilibrium constant KA: 1.3e-08 M⁻¹
[5]; input of 400 pmol peptide to 1 μl streptavidin sepharose
  Amount of elutable peptide (effectively bound fraction of peptide): 100 to 150 pmol
[5]; per 1 μl streptavidin sepharose, 600 μl Sample A
  amount of peptide used for immobilization at which a maximum of PT binding was reached: 300 to 400 pmol
[5]; varying amounts of peptide used for immobilization, Sample A
  Maximal binding of PT to peptide streptavidin sepharose: 100-150 pmol PT
